# Source: publication doi:10.1101/609503
# The chains behind the UniProt entries cited, without tags or fusion partners. Residues count along the entry.
# UniProt P0AFB1, residues 19-294: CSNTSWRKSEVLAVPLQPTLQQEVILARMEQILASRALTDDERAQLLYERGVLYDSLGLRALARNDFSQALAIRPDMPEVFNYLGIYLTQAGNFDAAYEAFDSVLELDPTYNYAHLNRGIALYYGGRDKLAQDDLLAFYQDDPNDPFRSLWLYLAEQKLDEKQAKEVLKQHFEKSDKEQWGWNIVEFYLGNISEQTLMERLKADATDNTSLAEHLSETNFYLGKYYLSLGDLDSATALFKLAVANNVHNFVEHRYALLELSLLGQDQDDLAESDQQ
# Results are given in words; binding and its absence hold for the method and conditions named. For part of these data: Tags and fused reporters may be left off the sequences shown.
# B1: Tagless PBP5 (enzyme, UniProt P0AEB2 30-403)
# chain: DDLNIKTMIPGVPQIDAESYILIDYNSGKVLAEQNADVRRDPASLTKMMTSYVIGQAMKAGKFKETDLVTIGNDAWATGNPVFKGSSLMFLKPGMQVPVSQLIRGINLQSGNDACVAMADFAAGSQDAFVGLMNSYVNALGLKNTHFQTVHGLDADGQYSSARDMALIGQALIRDVPNEYSIYKEKEFTFNGIRQLNRNGLLWDNSLNVDGIKTGHTDKAGYNLVASATEGQMRLISAVMGGRTFKGREAESKKLLTWGFRFFETVNPLKVGKEFASEPVWFGDSDRASLGVDKDVYLTIPRGRMKDLKASYVLNSSELHAPLQKNQVVGTINFQLDGKTIEQRPLVVLQEIPEGNFFGKIIDYIKLMFHHWFG
# B2: PBP7 (enzyme, UniProt P0AFI5 26-310)
# chain: KTAAATTASQPEIASGSAMIVDLNTNKVIYSNHPDLVRPIASISKLMTAMVVLDARLPLDEKLKVDISQTPEMKGVYSRVRLNSEISRKDMLLLALMSSENRAAASLAHHYPGGYKAFIKAMNAKAKSLGMNNTRFVEPTGLSVHNVSTARDLTKLLIASKQYPLIGQLSTTREDMATFSNPTYTLPFRNTNHLVYRDNWNIQLTKTGFTNAAGHCLVMRTVINNKPVALVVMDAFGKYTHFADASRLRTWIETGKVMPVPAAALSYKKQKAAQMAAAGQTAQND
# modifications: NT647 RED-NHS dye on amines where used as the labelled partner (fl-PBP7)
# B3: PBP7 (untagged ligand in the pull-down with His-MepS) (enzyme, UniProt P0AFI5 26-310)
# chain: B2 chain
# Legend:
# [1] = target: His-tagged NlpI (E. coli) (UniProt P0AFB1); assay: pull-down
# MepS (E. coli) = target: T1, MepS (E. coli) (UniProt P0AFV4); assay: MST
# T1 sequence (chain, NT647 RED-NHS dye on amines where used as the labelled partner (fl-MepS)): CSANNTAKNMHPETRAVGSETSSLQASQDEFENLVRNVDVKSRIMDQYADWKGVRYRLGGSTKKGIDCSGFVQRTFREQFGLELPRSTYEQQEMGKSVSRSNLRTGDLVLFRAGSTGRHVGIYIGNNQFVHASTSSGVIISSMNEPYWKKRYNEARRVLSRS
# His-MepS (E. coli) = target: T2, His-MepS (E. coli) (UniProt P0AFV4); assay: pull-down
# T2 sequence: T1 sequence (chain, NT647 RED-NHS dye on amines where used as the labelled partner (fl-MepS))
binder,measurement,setting,value
B1,binding,[1],no binding (tested: 1 or 2 μM)
B2,binding,MepS (E. coli),no binding (tested: 30 μM)
B3,binding,His-MepS (E. coli),no binding (tested: 1-2 μM)
